These are yes or no findings as the source states them, for the method shown.
Legend:
[1] = target: P1-15, synthetic C-terminal peptide of P1 adhesin with N-terminal biotin (Mycoplasma pneumoniae); experiment: ELISA; 15 µg/ml of C-terminal P1 fragment bound to wells, incubated with host protein at several concentrations; detected with antiserum against the host protein, absorbance at 450 nm; both purified
[2] = target: T1, Fetuin, fluorescent labelled (microscale thermophoresis) (bovine) (UniProt P12763); experiment: MST; fluorescent labelled host protein, peptide titrated; thermophoresis 30 s, 40%, 60% and 80% MST power; both purified
T1 sequence (chain, fluorescent label): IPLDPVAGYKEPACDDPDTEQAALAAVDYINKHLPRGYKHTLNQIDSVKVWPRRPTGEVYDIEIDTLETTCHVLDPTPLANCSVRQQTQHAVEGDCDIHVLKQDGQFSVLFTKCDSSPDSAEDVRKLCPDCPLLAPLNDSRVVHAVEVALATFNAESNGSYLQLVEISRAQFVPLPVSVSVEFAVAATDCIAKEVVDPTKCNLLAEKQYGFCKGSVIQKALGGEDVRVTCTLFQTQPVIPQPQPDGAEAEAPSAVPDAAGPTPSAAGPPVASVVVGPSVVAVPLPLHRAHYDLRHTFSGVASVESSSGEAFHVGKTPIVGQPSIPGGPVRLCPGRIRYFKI

By UniProt entry, the sequences of proteins in these tests, tags left out. Residues count along the entry.
UniProt P02788, residues 20-710: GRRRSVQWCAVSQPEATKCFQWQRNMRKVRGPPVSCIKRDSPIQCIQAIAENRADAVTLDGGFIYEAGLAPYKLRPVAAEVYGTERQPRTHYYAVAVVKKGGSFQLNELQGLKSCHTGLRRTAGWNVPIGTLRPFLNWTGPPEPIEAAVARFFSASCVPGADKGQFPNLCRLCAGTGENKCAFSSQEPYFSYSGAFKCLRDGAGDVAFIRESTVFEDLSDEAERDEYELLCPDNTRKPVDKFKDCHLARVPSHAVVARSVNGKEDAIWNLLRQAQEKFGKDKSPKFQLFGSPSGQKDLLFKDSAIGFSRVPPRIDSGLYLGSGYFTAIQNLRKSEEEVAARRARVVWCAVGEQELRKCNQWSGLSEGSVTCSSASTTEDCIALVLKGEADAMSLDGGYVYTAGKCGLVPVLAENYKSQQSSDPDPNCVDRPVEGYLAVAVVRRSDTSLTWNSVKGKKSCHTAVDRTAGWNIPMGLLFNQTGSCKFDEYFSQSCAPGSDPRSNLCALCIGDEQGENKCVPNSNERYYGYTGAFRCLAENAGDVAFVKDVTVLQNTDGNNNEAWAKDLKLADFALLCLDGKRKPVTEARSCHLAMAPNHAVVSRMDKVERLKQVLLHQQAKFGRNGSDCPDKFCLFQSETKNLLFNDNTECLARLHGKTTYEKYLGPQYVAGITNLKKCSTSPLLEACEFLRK

Molecule: Human lactoferrin (from UniProt P02788 20-710)
- binding [1]: no binding

Molecule: PKPPRAAPPKAPTPVPPGPASPVKKPKQAPG [Scrambled version of P1-30]
- binding [2]: no binding

From paper PMC7156367, “Cell surface processing of the P1 adhesin of Mycoplasma pneumoniae identifies novel domains that bind host molecules” (Scientific Reports, 2020)
